# Laboratory results: patent US7259266B2, “Benzopyran compounds useful for treating inflammatory conditions” (Pharmacia Corporation, priority 2003, dated 2007)
# By UniProt entry, the sequences of proteins in these tests, tags left out. Residues count along the entry.
# UniProt P23219, 24-599 limits assumed: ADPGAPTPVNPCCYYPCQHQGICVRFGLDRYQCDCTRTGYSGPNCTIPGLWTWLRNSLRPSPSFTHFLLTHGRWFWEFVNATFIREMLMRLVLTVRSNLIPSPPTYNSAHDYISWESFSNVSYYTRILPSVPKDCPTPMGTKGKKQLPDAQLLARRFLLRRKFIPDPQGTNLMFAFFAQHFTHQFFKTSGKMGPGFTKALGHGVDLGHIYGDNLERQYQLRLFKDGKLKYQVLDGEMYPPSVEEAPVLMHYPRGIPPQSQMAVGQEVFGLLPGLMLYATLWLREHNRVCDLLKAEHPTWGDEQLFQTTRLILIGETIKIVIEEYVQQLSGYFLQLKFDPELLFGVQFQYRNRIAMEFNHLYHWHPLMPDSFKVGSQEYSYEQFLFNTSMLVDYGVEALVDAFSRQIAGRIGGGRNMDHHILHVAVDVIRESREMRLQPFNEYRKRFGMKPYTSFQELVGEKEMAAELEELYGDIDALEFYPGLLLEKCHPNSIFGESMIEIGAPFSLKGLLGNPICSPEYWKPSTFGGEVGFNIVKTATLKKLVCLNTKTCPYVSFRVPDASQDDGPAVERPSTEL
# “And” between values parts separate entries of the source, which are not always exact repeats. Equal values may be shown once. The structures given here were assigned with low confidence; some may be wrong.
# Biological target: COX-1 (Homo sapiens, UniProt P23219)
# Test: Assay for COX-1 activity (PGE2 formed, ELISA)
# Conditions: read-out: hCox-1 IC50; recombinant hCox-1; compounds pre-incubated 10-20 minutes, reaction stopped after ten minutes; pH 8.0
smiles,measurement,value
O=C(O)C1=Cc2cc(-c3cccc([N+](=O)[O-])c3)ccc2OC1C(F)(F)F (stereo not shown),IC50,61.4 µM and 41.1 µM
